In article PMC10380613:
No constants are given. Whether binding was seen depends on the method and setting.

Molecular target: MOY male-determining protein of Ceratitis capitata (Ceratitis capitata)
Experiment: two-hybrid; GAL4 system (Matchmaker, Clontech); baits in pGBT9 (Gal4 BD), preys in pGAD424 (Gal4 AD); S. cerevisiae AH109; HIS3 reporter, growth on SD/-His/-Leu/-Trp with 20 mM 3-AT, 30 °C; triplicate; each protein as bait and as prey

- binding: no binding
B1: MOY male-determining protein of Ceratitis capitata (protein, UniProt A0A5B8HDM7 1-70)
chain: MDIGNISSKNTISLITIKYNSRTIKVITSKSRGMEPKFWGKMEIAMTENYFVEEKPLVYNFAIEYRKLMS
